Reference: PubChem BioAssay AID1671190 (National Center for Advancing Translational Sciences (NCATS), 2021)
The whole screen tested about 580,000 compounds, of which about 6,100 (1.1%) were called active. This list was built around the results that the source calls inconclusive (neither active nor inactive); the mix of calls is not that of the screen. Calls come from the whole dose curve; as a rule, active = well fitted inhibition curve with a large enough effect; inconclusive = small, poorly fitted or top-dose-only effect, or another doubt; inactive = no such curve, though single readings can be large or run the other way. Potencies beside an inconclusive call are fits to weak or partial responses and may not hold up.
% is set by controls: 0 for no effect and ±100 for the full control effect; potency is the fitted concentration of half-maximal effect.

Amino acid sequences for entries named in this document (tags omitted). A change or cut given only in a name is not applied to a line headed by its entry.
UniProt P18054: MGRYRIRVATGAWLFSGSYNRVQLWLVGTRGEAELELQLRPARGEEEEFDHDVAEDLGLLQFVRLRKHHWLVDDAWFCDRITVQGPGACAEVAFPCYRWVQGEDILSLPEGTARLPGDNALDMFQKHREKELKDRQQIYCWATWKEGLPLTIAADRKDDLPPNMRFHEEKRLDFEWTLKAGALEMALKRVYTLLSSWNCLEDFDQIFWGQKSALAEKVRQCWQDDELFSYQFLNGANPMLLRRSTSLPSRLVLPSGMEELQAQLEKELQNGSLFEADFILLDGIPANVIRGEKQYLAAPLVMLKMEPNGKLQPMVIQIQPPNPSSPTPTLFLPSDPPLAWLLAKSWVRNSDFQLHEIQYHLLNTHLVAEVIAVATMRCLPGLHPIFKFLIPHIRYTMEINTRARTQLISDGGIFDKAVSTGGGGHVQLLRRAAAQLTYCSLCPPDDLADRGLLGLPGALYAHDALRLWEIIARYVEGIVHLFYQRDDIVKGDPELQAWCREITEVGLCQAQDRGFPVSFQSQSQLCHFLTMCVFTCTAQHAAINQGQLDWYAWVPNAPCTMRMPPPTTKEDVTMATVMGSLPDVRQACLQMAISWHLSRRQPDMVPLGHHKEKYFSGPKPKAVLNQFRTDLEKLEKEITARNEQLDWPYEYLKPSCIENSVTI

What follows are compounds tested against Polyunsaturated fatty acid lipoxygenase ALOX12 (Homo sapiens) (UniProt P18054) (assay: Primary qHTS assay for inhibitors of human arachidonate 12S-lipoxygenase (ALOX12): Round 2). Details: purified 12hLO, xylenol orange hydroperoxide absorbance; activity change, negative = inhibition: at 108 µM (top of the series) unless noted.
How it was run: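 Purified human 12hLO (150 nM final) in 25 mM Hepes, 0.01% Triton X-100, pH 7.0 was preincubated 15 min at room temperature with compound. Then 40 uM arachidonic acid was added, 30 min. Hydroperoxide was read by Fe-XO absorbance ratio 573/405 nm.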
In the case of `COc1cccc(N(C(=O)CCl)C(C(=O)NCCc2ccccc2)c2cccs2)c1` (stereo not given), the “activity change, negative = inhibition” value is reported as inactive: -34.8%. `COc1ccccc1OCC(=O)Nc1ccc2c(c1)OCO2` was tested, and the Potency was inconclusive: 50.1 µM [inhibitor, partial curve, poor fit]. With `O=C(O)CCCCCN1C(=O)/C(=C\c2cn(-c3ccccc3)nc2-c2cccs2)SC1=S` the Potency was inconclusive: 50.1 µM [inhibitor, partial curve, poor fit]. In the case of `CC(C)NC(=O)C[C@@H]1C[C@H]2O[C@H](CNC(=O)NC3CCC3)[C@@H](O)[C@H]2O1`, the Potency is reported as inconclusive: 126 µM [inhibitor, partial curve, poor fit]. With `O=C(N/N=C/c1ccc([N+](=O)[O-])o1)c1cc(-c2cccc(Br)c2)nc2ccccc12` the Potency was inconclusive: 126 µM [inhibitor, single point]. `O=C(c1cc(C2CC2)nn1-c1ccccc1)N1CCN(S(=O)(=O)c2c(F)cccc2F)CC1` was tested, and the Potency was inconclusive: 25.1 µM [inhibitor, single point]. `CC(C)COc1ccc(C(=O)NCC2OCCc3ccccc32)cc1` (stereo not given) was tested, and the “activity change, negative = inhibition” value was inactive: -18.8%. For `COc1ccc(CC(=O)Nc2cccc(-c3nnc(-c4ccc(C)cc4)o3)c2)cc1OC`, the Potency was inconclusive: 63.1 µM [inhibitor, partial curve, poor fit]. For `C/C=C/C=C/C(=O)NC(C)c1ccc(SC)cc1` (stereo not given), the Potency was inconclusive: 39.8 µM [inhibitor, partial curve, poor fit]. In the case of `Cc1cccc(NC(=S)N/N=C2/CCCC(C)C2)c1` (stereo not given), the Potency is reported as active: 35.5 µM. `c1ccc(CNc2ccccn2)cc1` was tested, and the “activity change, negative = inhibition” value was inactive: -0.121%. For `Cc1cccc(/C=c2\s/c(=C\C(=O)C(C)(C)C)[nH]c2=O)c1`, the “activity change, negative = inhibition” value was inactive: 325%. For `Cc1cccc(-c2c3c(=O)n(C)c(=O)n(C)c3cn2C(C)C)c1`, the Potency was inconclusive: 0.112 µM [inhibitor, full curve, poor fit]. With `O=C(COC(=O)c1ccc2ncsc2c1)NCc1ccc(Cl)cc1` the Potency was inconclusive: 112 µM [inhibitor, single point]. In the case of `O=C(/C=C/c1ccc(OCc2ccccc2)cc1)c1cccnc1`, the Potency is reported as inconclusive: 28.2 µM [inhibitor, single point]. With `CCN(CC)S(=O)(=O)c1ccc(O)c(C(=O)OCC(=O)N2CCCc3ccccc32)c1` the Potency was inconclusive: 44.7 µM [inhibitor, partial curve, poor fit]. In the case of `COc1cccc(F)c1C(C[N+](=O)[O-])c1c(N)n(C)c(=O)n(C)c1=O` (stereo not given), the Potency is reported as inconclusive: 100 µM [inhibitor, partial curve, poor fit]. `CNc1c(NS(=O)(=O)c2ccc(C3CCCCC3)cc2)c(=O)oc2ccccc12` was tested, and the Potency was inconclusive: 56.2 µM [inhibitor, partial curve, poor fit]. `NC(=O)c1c(NC(=O)c2noc3c2CCCC3)sc2c1CCCC2` was tested, and the Potency was inconclusive: 89.1 µM [inhibitor, partial curve, poor fit]. `Cc1ccc(-n2cccc2CC(=O)NCC(C)C)cc1` was tested, and the Potency was inconclusive: 7.08 µM [inhibitor, full curve, poor fit]. With `CN(CCNC(=O)c1cn(C)c2ccc(S(=O)(=O)N(C)C)cc2c1=O)CCc1ccccc1` the Potency was inconclusive: 14.1 µM [inhibitor, single point]. `CCC(C)c1ccc(NC(=O)Nc2cccnc2)cc1` (stereo not given) was tested, and the Potency was inconclusive: 50.1 µM [inhibitor, partial curve, poor fit]. For `CC(NC(=O)c1cnc2n(c1=O)CCS2)c1ccccc1` (stereo not given), the Potency was inconclusive: 17.8 µM [inhibitor, partial curve, poor fit]. For `CC(=O)N1CCC2(C1)N=C(c1ccccn1)C(=O)N2` (stereo not given), the “activity change, negative = inhibition” value was inactive: 57.9% [at 176 µM]. With `CCOc1cccc(C(C)NC(=O)N(C)Cc2ccc(C#N)cc2)c1` (stereo not given) the activity change, negative = inhibition was inconclusive: -30.7% [inhibitor]. With `Cc1c(CN2CCC(n3nccc3NC(=O)C3CC3)CC2)[nH]c2ccccc12` the “activity change, negative = inhibition” value was inactive: 14.9%. In the case of `O=C(O)c1cccnc1SC1CC(=O)N(c2ccccc2)C1=O` (stereo not given), the “activity change, negative = inhibition” value is reported as inactive: -8.55%. `O=C(NC(=S)Nc1ccc(CN2CCOCC2)cc1)c1cccc([N+](=O)[O-])c1` was tested, and the “activity change, negative = inhibition” value was inactive: -21.8%. In the case of `Cc1ccc(C)c(NC(=O)CSc2ncnc3nc[nH]c23)c1`, the Potency is reported as inconclusive: 50.1 µM [inhibitor, partial curve, poor fit]. `CNCc1ccccc1Sc1ccc(OC)c(OC)c1` was tested, and the Potency was inconclusive: 89.1 µM [inhibitor, single point]. With `CCCCc1nc2sc3c(NCCN(C)C)ncnc3c2c2c1COC(C)(C)C2` the “activity change, negative = inhibition” value was inactive: -22.1%. In the case of `FC(F)(F)c1cc(-c2ccccn2)nc2c(-c3ccc(Cl)cc3)cnn12`, the Potency is reported as inconclusive: 89.1 µM [inhibitor, single point]. `CCC[N+](CCC)(CC[O-])Cc1ccccc1` was tested, and the Potency was inconclusive: 35.5 µM [inhibitor, single point]. For `Cc1ccc(Cc2c(C3CCCCC3)nc3ccc(C)cn23)cc1`, the Potency was inconclusive: 56.2 µM [inhibitor, partial curve, poor fit]. For `CCOCCCNC(=O)C(c1ccc(OC)cc1)N(Cc1cccs1)C(=O)CNC(=O)c1ccccc1` (stereo not given), the Potency was inconclusive: 7.94 µM [inhibitor, full curve, poor fit]. For `CCn1c(C)cs/c1=N\C(=S)Nc1ccccc1C`, the Potency was inconclusive: 56.2 µM [inhibitor, partial curve, poor fit]. With `CC1CCc2c(C(=O)NCCN3CCOCC3)csc2C1` (stereo not given) the “activity change, negative = inhibition” value was inactive: -0.754%. For `Nc1nc2n(n1)C(c1ccco1)CC(c1ccc(Cl)cc1Cl)N2` (stereo not given), the Potency was inconclusive: 89.1 µM [inhibitor, partial curve, poor fit]. `CCOc1ccc(CC(=O)NNC(=S)Nc2ccc(OC)c(OC)c2)cc1` was tested, and the Potency was inconclusive: 2.24 µM [inhibitor, full curve, poor fit]. `O=[N+]([O-])c1ccc(Cl)c(CN2CCCCCC2)c1` was tested, and the Potency was active: 0.562 µM. With `Cc1cc2ccccc2[nH]1` the Potency was inconclusive: 20 µM [inhibitor, partial curve]. With `O=C(Nc1ccccc1Cc1ccccc1)c1ccccc1F` the Potency was inconclusive: 158 µM [inhibitor, single point]. For `Cc1ccc(-c2c(CN3CCN(c4cc(Cl)ccc4C)CC3)csc2C)cc1`, the Potency was inconclusive: 39.8 µM [inhibitor, partial curve, poor fit]. With `CCOC(=O)c1nc2cc(C)c(C)cc2nc1NCc1ccco1` the Potency was inconclusive: 50.1 µM [inhibitor, partial curve, poor fit]. In the case of `Cc1ccc(S(=O)(=O)NCC(=O)N2CCC(C)CC2)cc1`, the Potency is reported as inconclusive: 100 µM [inhibitor, single point]. For `Cc1cccc(C)c1NC(=O)Cn1ccn2nc(-c3ccc(F)cc3)c(CO)c2c1=O`, the Potency was inconclusive: 79.4 µM [inhibitor, single point]. With `COCCN1C(=O)N[C@@H](c2ccco2)C(C(C)=O)=C1C` the Potency was inconclusive: 89.1 µM [inhibitor, single point]. In the case of `O=C(CSc1nc2ccccc2n1CC(=O)Nc1ccc(F)cc1F)Nc1ccc(F)cc1`, the Potency is reported as inconclusive: 100 µM [inhibitor, partial curve, poor fit]. For `CC(=O)Nc1ccc(C(=O)NNS(=O)(=O)c2ccc(C)cc2)cc1`, the “activity change, negative = inhibition” value was inactive: 6.13%. In the case of `O=C(c1cc(-c2ccc(Br)cc2)n[nH]1)N1CCN(C(=O)c2ccccc2Br)CC1`, the “activity change, negative = inhibition” value is reported as inactive: 7.39%. For `CCOc1ccc2c(c1)c(=O)c(S(=O)(=O)c1ccc(C)cc1)cn2CC(=O)Nc1ccc(C)cc1`, the Potency was inconclusive: 7.94 µM [inhibitor, full curve, poor fit]. In the case of `CCOc1ncccc1C(=O)Nc1cccc(-c2nc3cccnc3s2)c1`, the “activity change, negative = inhibition” value is reported as inactive: 4.56%. `COc1ccc(-c2cc3nc(-c4ccccc4)cc(N4CCN(C(=O)c5ccccc5)CC4)n3n2)cc1` was tested, and the Potency was inconclusive: 3.16 µM [inhibitor, full curve, poor fit]. With `COc1cc(O)cc(O)c1C(=O)/C=C/c1ccccc1` the Potency was inconclusive: 100 µM [inhibitor, single point]. `Cc1ccc2nc(Cl)c(C3CC(c4cccs4)=NN3C(=O)CCCC(=O)O)cc2c1` (stereo not given) was tested, and the Potency was inconclusive: 56.2 µM [inhibitor, partial curve, poor fit]. In the case of `O=C(Nc1ccccc1)c1ccc2nc(-c3ccco3)c(-c3ccco3)nc2c1`, the Potency is reported as inconclusive: 1.41 µM [inhibitor, full curve, poor fit]. `CN1C[C@H](C(=O)Nc2ccccc2)C[C@H]1c1cccc(C(F)(F)F)c1` was tested, and the Potency was inconclusive: 10 µM [inhibitor, partial curve, poor fit]. For `Cc1ccc([N+](=O)[O-])cc1NC(=O)Nc1ccc(S(N)(=O)=O)cc1`, the Potency was inconclusive: 112 µM [inhibitor, single point]. `COc1ccc(OC)c(Nc2nc3ccc(C)cc3n3cnnc23)c1` was tested, and the Potency was inconclusive: 0.224 µM [inhibitor, full curve, poor fit]. With `O=C(Nc1ccccc1F)c1cnccn1` the Potency was inconclusive: 100 µM [inhibitor, partial curve, poor fit]. In the case of `Cc1nc2sc(C#N)c(N)c2c(C)c1C`, the Potency is reported as inconclusive: 100 µM [inhibitor, partial curve, poor fit]. For `Cc1[nH]n(-c2nc(-c3ccc(Cl)cc3)cs2)c(=O)c1N=Nc1ccc(O)cc1`, the “activity change, negative = inhibition” value was inactive: -10.1%. `CCOC(=O)/C(C#N)=C\c1ccc(N2CCN(C/C=C/c3ccccc3)CC2)cc1` was tested, and the “activity change, negative = inhibition” value was inactive: -26.5%. With `N#C/C(=C/c1ccc2c(c1)OCCO2)c1ccccn1` the Potency was inconclusive: 1.58 µM [inhibitor, full curve, poor fit]. For `O=C(Nc1nnc(C2CC2)s1)c1cc(-c2ccco2)nc2ccccc12`, the Potency was inconclusive: 14.1 µM [inhibitor, partial curve].
